“And” between values parts separate entries of the source, which are not always exact repeats. Equal entries are not always repeated. Where two headings read alike, the source gives them in different places. For some assays here: At least one compound was matched to its structure with a doubt left. Some of these results come from one statement about several compounds together.
Columns and labels:
talin H1-H4 = talin H1-H4 (Homo sapiens, UniProt Q9Y490); test: Isothermal titration calorimetry; type: binding; settings: read-out: KD (affinity constant), ITC, 25° C.
Procedure: Vinculin, IpaA proteins and peptides were extensively dialyzed in binding buffer (25 mM Tris pH 7.4, 100 mM NaCl and 1 mM β-Mercaptoethanol). The final concentration of all proteins/peptides was measured using a BCA test (Thermo Scientific). Talin-IpaA binding was measured by microcalorimetry using an ITC200 calorimeter (MicroCal) at 25° C. 200 μL of 20-100 μM of talin H1-H4 protein was added to the cell and binding in the presence of different concentrations of IpaA VBS1, VBS2 or VBS3 peptides was measured. In other experiments, 200 μL of a 16 μM equimolar mix of A483:HVD1 was incubated for one hour at room temperature prior to addition to the cell. Binding to talin H1-H4 (100 μM) was measured. Typically, 20-40 injections of 2 μL of ligand were made with intervals of 320 seconds between each addition, with a reference power of 12 μcal/sec. Data were analyzed using the MicroCal software provided by manufacturer.

Chains of the proteins cited; added tags and fusions are not shown. Residues count along the entry.
UniProt Q9Y490, 482-636: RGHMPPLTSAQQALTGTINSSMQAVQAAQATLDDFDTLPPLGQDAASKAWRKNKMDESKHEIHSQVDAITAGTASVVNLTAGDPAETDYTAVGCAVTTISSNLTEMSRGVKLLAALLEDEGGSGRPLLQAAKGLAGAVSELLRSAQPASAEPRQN

melanocytes = test: Matrigel invasion assay; type: cell-based; settings: 24-hour incubation; transfection levels 20-30%
Procedure: Cells were transfected by GFP-A524, GFP-A483 or Mock-transfected (without DNA, as a control).
Cells were further trypsinized, collected, and deposited in a matrigel insert. Following a 24-hour incubation, the matrigel was remove, the membrane was fixed and processed for fluorescence straining of cell nuclei with DAPI. Cells that transmigrated across the matrigel were scored (FIG. 24B).

Molecule | Kd (talin H1-H4) [nM] | Kd (talin H1-H4; listed as IpaA VBS3/TBS) | inhibition of cell migration in matrigel invasion assays (melanocytes)
CC[C@H](C)[C@H](N)C(=O)N[C@@H](Cc1ccc(O)cc1)C(=O)N[C@@H](CCCCN)C(=O)N[C@@H](C)C(=O)N[C@@H](C)C(=O)N[C@@H](CCCCN)C(=O)N[C@@H](CC(=O)O)C(=O)N[C@H](C(=O)N[C@H](C(=O)N[C@H](C(=O)N[C@@H](CO)C(=O)N[C@@H](CC(C)C)C(=O)N[C@@H](CO)C(=O)N[C@@H](CCCCN)C(=O)N[C@H](C(=O)N[C@@H](CC(C)C)C(=O)N[C@@H](CCCCN)C(=O)N[C@@H](CC(N)=O)C(=O)N[C@H](C(=O)N[C@@H](CC(N)=O)C(=O)N[C@@H](CCCCN)C(=O)N[C@@H](CC(=O)O)C(=O)O)[C@@H](C)CC)C(C)C)[C@@H](C)O)[C@@H](C)O)C(C)C [IpaA VBS1] | 15200 | – | –
CC[C@H](C)[C@H](NC(=O)[C@H](CC(C)C)NC(=O)[C@H](CO)NC(=O)[C@@H](NC(=O)[C@H](CC(C)C)NC(=O)[C@H](CC(N)=O)NC(=O)[C@H](CO)NC(=O)[C@H](CC(C)C)NC(=O)[C@H](CO)NC(=O)[C@H](CC(N)=O)NC(=O)[C@@H](NC(=O)[C@@H](NC(=O)[C@H](CCCCN)NC(=O)[C@H](CCCCN)NC(=O)[C@H](CO)NC(=O)[C@H](C)NC(=O)[C@H](CCC(=O)O)NC(=O)[C@H](Cc1ccccc1)NC(=O)[C@@H](NC(=O)[C@@H](NC(=O)[C@H](CCC(=O)O)NC(=O)[C@H](CCCNC(=N)N)NC(=O)[C@@H](N)[C@@H](C)O)[C@@H](C)O)[C@@H](C)CC)C(C)C)[C@@H](C)O)[C@@H](C)CC)C(=O)NCC(=O)N[C@H](C(=O)O)[C@@H](C)O [IpaA VBS3] | 174 | 174 nM and 175 nM and 150 nM | –
A483: amino acids 483 to 633 of SEQ ID NO: 1 (IpaA), containing IpaA VBS1, VBS2 and VBS3 (protein, listed as Shigella flexneri, A483 / IpaA (483-633)) GDTYLTRETIFEASKKVTNSLSNLISLIGTKSGTQERELQEKSKDITKSTTEHRINNKLKVTDANIRNYVTETNADTIDKNHAIYEKAKEVSSALSKVLSKIDDTSAELLTDDISDLKNNNDITAENNNIYKAAKDVTTSLSKVLKNINKD | – | – | up to 90%
A524: IpaA 524-633, containing only IpaA VBS1 and VBS2 (protein, listed as Shigella flexneri, A524 / IpaA (524-633), IpaA 524-633, containing only IpaA VBS1 and VBS2) KSKDITKSTTEHRINNKLKVTDANIRNYVTETNADTIDKNHAIYEKAKEVSSALSKVLSKIDDTSAELLTDDISDLKNNNDITAENNNIYKAAKDVTTSLSKVLKNINKD | – | – | up to 90%

Source: patent US11040083B2, “Polypeptides comprising vinculin binding sites for the treatment of proliferation and/or adhesion related diseases” (PARIS SCIENCES ET LETTRES—QUARTIER LATIN, priority 2015, dated 2021)
